Measured values from patent US12350317B2, “Immunotherapy for the treatment and prevention of inflammatory bowel disease” (THE UAB RESEARCH FOUNDATION, priority 2019, dated 2025).
At least one compound was matched to its structure with a doubt left.

Key:
[1] = tested on: donor CBir1Tg CD4+ TM cells; experiment: Ablation of pre-existing antigen-specific CD4+ TM cells in C57BL/6 mice upon MEP1 challenge; assay type: in vivo, mouse; conditions: after challenge
[2] = tested on: CBir1Tg CD4+CD44+ TM cells; experiment: CBir1Tg CD4+ TM cells co-cultured with APCs and MEP1 in vitro; assay type: cell-based, mouse; conditions: 1 μg/ml MEP1, 100 nM rapamycin, 1 mM metformin, or both; 90 hrs
[3] = tested on: microbiota flagellin-specific CD4+ T cells; experiment: Survival, proliferation and cytokine production of flagellin-specific CD4+ T cells from Crohn's patients

SMILES: CO[C@H]1C[C@@H]2CC[C@@H](C)[C@@](O)(O2)C(=O)C(=O)N2CCCC[C@H]2C(=O)O[C@H]([C@H](C)C[C@@H]2CC[C@@H](O)[C@H](OC)C2)CC(=O)[C@H](C)/C=C(\C)[C@@H](O)[C@@H](OC)C(=O)[C@H](C)C[C@H](C)/C=C/C=C/C=C/1C [rapamycin]
- Pre-existing antibody irrelevant to antigen challenge (CTB IgG) [1]: no difference
- Cell death / survival and inhibition of cell proliferation of CD4+ TM cells [2]: significant but much less intense cell death and inhibition of cell proliferation
- Cell death ([3]; 50 nM rapamycin or 1 mM metformin, 6-7 days): significantly increased cell death
- Cell proliferation ([3]; 50 nM rapamycin, 1 mM metformin, or both, 6-7 days): decreased cell proliferation
- Cytokine production (IFNγ, TNFα and IL-17A) upon re-stimulation ([3]; 6-7 hours re-stimulation with APCs and Fla mix): neither rapamycin or metformin treatment altered the cytokine production
